Here are results for one compound from ChEMBL document CHEMBL3739368, “Versixanthones A-F, Cytotoxic Xanthone-Chromanone Dimers from the Marine-Derived Fungus Aspergillus versicolor HDN1009” (J Nat Prod, 2015).

The test in a line: Cytotoxicity against human HO8910 cells after 72 hrs by MTT assay. The note with it: HO-8910, 72 h. In kind it is functional, cell-based.

In general, IC50 refers to the concentration that gives 50% inhibition. The low end stands for greater potency in that assay, the high end for weaker potency in that assay.

Structures can show the parent of a compound that is named as a salt.

Regarding `COc1cccc2c1C(=O)c1c(O)c3c(c(O)c1C2=O)C[C@@](O)(C(=O)CO)C[C@@H]3O[C@H]1C[C@H](N)[C@H](O)[C@H](C)O1` [DOXORUBICIN HYDROCHLORIDE], the IC50 was 500 nM.
